Reference: PubChem BioAssay AID504467 (National Center for Advancing Translational Sciences (NCATS), 2011)
About 7,700 (2.3%) of roughly 330,000 compounds were called active. This list was built around the results that the source calls inconclusive (neither active nor inactive); the mix of calls is not that of the screen. Calls come from the whole dose curve; as a rule, active = well fitted inhibition curve with a large enough effect; inconclusive = small, poorly fitted or top-dose-only effect, or effect the other way; inactive = flat fitted curve, though single readings scatter. Where the call is inconclusive, the potency comes from a doubtful curve fit.

Assay: qHTS screen for small molecules that inhibit ELG1-dependent DNA repair in human embryonic kidney (HEK293T) cells expressing luciferase-tagged ELG1; note: nearly all actives have a fitted effect of over 55% in size
Conditions: HEK293T ELG1-luciferase reporter, luminescence, 16 h, DNA damage induced by 5-fluorouridine; series mostly up to 46.1 µM
In short: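 Luminescence from the luciferase reporter, measured 30 min after ONE-Glo reagent at room temperature, was the read-out. Beforehand, 2,000 cells per well were exposed for 16 hr at 37 °C to 5-fluorouridine together with compound or vehicle.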
Potency is the fitted concentration of half-maximal effect.

Row | Compound | Potency
1 | CN(CCOc1ccccc1)C(=O)c1ccc(OC2CCN(C(=O)C3CC3)CC2)cc1 | inconclusive: 23.1 µM [inhibitor, single point]
2 | COc1cccc(CN2CC(C(=O)N(C)Cc3nc4ccc(F)cc4[nH]3)CCC2=O)c1 (configuration not stated) | inconclusive: 8.2 µM [activator, partial curve, poor fit]
3 | Clc1ccc(Cn2ncc3c(N4CCOCC4)ncnc32)cc1 | inconclusive: 20.6 µM [inhibitor, single point]
4 | Cc1cc(C)n(C(=O)CNC(=O)c2ccc(C(C)(C)C)cc2)n1 | inconclusive: 9.2 µM [activator, partial curve]
5 | Cc1ccc(C(=O)Oc2cccc(NC(=O)c3cccs3)c2)cc1S(=O)(=O)N1CCOCC1 | inconclusive: 29.1 µM [inhibitor, partial curve, poor fit]
6 | COCCCNCCCOc1ccc(Cl)cc1Br | inactive
7 | O=c1c2ccccc2nnn1CSc1nnc(-c2cccs2)n1Cc1ccccc1 | inconclusive: 4.11 µM [inhibitor, partial curve, poor fit]
8 | CCOc1ccc(C2/C(=C(\O)c3ccc4c(c3)OCCO4)C(=O)C(=O)N2CCCN2CCOCC2)cc1 (configuration not stated) | inconclusive: 29.1 µM [activator, partial curve, poor fit]
9 | O=C(c1cccc([N+](=O)[O-])c1)n1nc(-c2ccccc2)nc1NCc1ccccc1 | inconclusive: 20.6 µM [activator, partial curve]
10 | Cc1cc(C(=O)NC2CCCc3c2cnn3-c2cccc(C)c2C)no1 (configuration not stated) | inconclusive: 23.1 µM [activator, single point]
11 | O=C(CN1C(=O)NC(Cc2ccccc2)C1=O)Nc1ccc(F)c(F)c1F (configuration not stated) | inactive
12 | O=c1c2ccccc2nc2n1CC/C2=C/N1CCN(c2cccc(C(F)(F)F)c2)CC1 | inactive
13 | COC(=O)c1cccc(-n2c(=O)n(Cc3ccccc3)c(=O)c3[nH]cnc32)c1C | inactive
14 | CCOc1ccc(-c2c(C(=O)N/N=C(\C)c3ccco3)nnn2-c2nonc2N)cc1 | inconclusive: 29.1 µM [activator, single point]
15 | CCCOC(=O)c1ccc(NC(=O)COC)cc1 | inconclusive: 18.4 µM [activator, partial curve]
16 | CCOCC(=O)Nc1ccc2c(c1)OCCO2 | inconclusive: 12.6 µM [activator, partial curve, poor fit]
17 | C=CCOc1ccc2c(c1)c(S(=O)(=O)c1ccc(C)cc1)cn2COC | inconclusive: 14.6 µM [inhibitor, single point]
18 | O=C(CSCc1ccco1)c1ccc(Cl)s1 | inconclusive: 6.51 µM [activator, single point]
19 | COc1ccc(S(=O)(=O)N2CCCC(C(=O)NCc3ccc4c(c3)OCO4)C2)cc1 (configuration not stated) | inactive
20 | O=C(CN1C(=O)NC2(CCCCCC2)C1=O)N1CCCCC1 | inconclusive: 7.08 µM [activator, partial curve, poor fit]
21 | CC(C)CC1c2[nH]c3ccccc3c2CCN1C(=O)c1cnccn1 (configuration not stated) | inconclusive: 18.3 µM [activator, partial curve]

Row | Compound | Potency
22 | CC1CC1C(=O)OCC(=O)Nc1ncc(Cl)cc1Cl (configuration not stated) | inconclusive: 29.1 µM [activator, single point]
23 | CC1CC(C)CN(c2nc(NCc3ccco3)nc(N)c2[N+](=O)[O-])C1 (configuration not stated) | inconclusive: 29.1 µM [inhibitor, partial curve, poor fit]
24 | O=C(O)c1cc(S(=O)(=O)Nc2cccc3ccccc23)c(Cl)cc1Cl | inactive
25 | CCOc1cc(C2NC(=S)NC(C)=C2C(=O)Nc2ccccc2)ccc1O (configuration not stated) | inactive
26 | O=C(Nc1cccc(-c2csc(Nc3ccc(Cl)cc3)n2)c1)c1ccccc1 | inconclusive: 18.3 µM [inhibitor, single point]
27 | CCc1cccc2c(C(=O)CSc3nncn3C)c[nH]c12 | inconclusive: 29.1 µM [activator, single point]
28 | CCOC(=O)C1CCCN(CC(=O)Nc2c(C(=O)OC)[nH]c3ccc(Br)cc23)C1 (configuration not stated) | active: 16.4 µM
29 | Cc1cccc(NC(=O)c2cc(Cl)sc2Cl)c1C | inconclusive: 18.4 µM [activator, partial curve, poor fit]
30 | CCOC(=O)/C=C(/C)N1N=C(c2ccc(OC)cc2)CC1c1cccc([N+](=O)[O-])c1 (configuration not stated) | inconclusive: 29.1 µM [activator, single point]
31 | N#Cc1nc(/C=C/c2ccccc2)oc1NCCCN1CCOCC1 | inconclusive: 20.6 µM [activator, single point]
32 | Cc1cc(C)n2nc(SCCOc3ccccc3F)nc2n1 | inconclusive: 20.6 µM [activator, partial curve]
33 | CCCOC(=O)C1=C(C)NC2=C(C(=O)CC(C)(C)C2)C1c1ccc(N(C)C)cc1 (configuration not stated) | inconclusive: 5.01 µM [inhibitor, single point]
34 | CC1C(=O)NN=C1C(=O)N/N=C/c1ccco1 (configuration not stated) | inactive
35 | CC(=O)Nc1cccc(-c2nn[nH]n2)c1 | inactive
36 | CCOc1ccc(C(=O)NCCc2cnc[nH]2)cc1 | inconclusive: 16.4 µM [activator, single point]
37 | O=C(Nc1ccc(/C=C/c2nc3ccccc3o2)cc1)c1ccc(F)cc1 | inconclusive: 12.6 µM [activator, partial curve, poor fit]
38 | Cc1cc(NC(=O)c2cccc(S(=O)(=O)N3c4ccccc4CC3C)c2)no1 (configuration not stated) | inconclusive: 23.1 µM [inhibitor, single point]
39 | N=c1n(Cc2ccc(Cl)cc2)c2ccccc2n1CC(O)COc1ccccc1 (configuration not stated) | inconclusive: 23.1 µM [inhibitor, single point]
40 | CC(C)c1ccc(NC(=O)COC(=O)c2cc(=O)[nH]c3ccccc23)cc1 | inconclusive: 10.3 µM [activator, partial curve, poor fit]
41 | O=C(C1CCCN(S(=O)(=O)c2cccc3nsnc23)C1)N1CCN(c2ccccn2)CC1 (configuration not stated) | inconclusive: 29.1 µM [inhibitor, single point]
42 | O=C(NC(=S)NCc1ccccc1)C1CC1 | inactive

Copied from above, compounds 37–38
Row | Compound | Potency
37 | O=C(Nc1ccc(/C=C/c2nc3ccccc3o2)cc1)c1ccc(F)cc1 | inconclusive: 12.6 µM [activator, partial curve, poor fit]
38 | Cc1cc(NC(=O)c2cccc(S(=O)(=O)N3c4ccccc4CC3C)c2)no1 (configuration not stated) | inconclusive: 23.1 µM [inhibitor, single point]
